Results from PubChem BioAssay (NCATS).
The shares of active, inactive and inconclusive entries below differ from those in the screen. For some of these results: Potencies beside an inconclusive call are fits to weak or partial responses and may not hold up. Activity calls are given as the source filed them. The call rests on the fitted dose curve; in most records, active means well fitted curve in the direction sought with a large enough effect; inconclusive means small, poorly fitted or top-dose-only effect, or another doubt; inactive means no such curve, though single readings can be large; an effect the other way counts as inactive or inconclusive.

What was measured:
[1] = Quantitative High-Throughput drug screen in 47 multiple myeloma cell lines against the NCATS MIPE library collection: JIM3_ECACC cell viability assay (AID 1918963; further: nearly all actives have a fitted effect of over 35% in size); settings: JIM3 myeloma viability, CellTiter-Glo ATP, 48 h; series mostly up to 45.8 µM
Procedure, shortened: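 Viability readout: CellTiter-Glo luminescence following 5 min room-temperature incubation with reagent. Prior exposure: 48 h, 37C, humidified 5% CO2, 500 cells per well.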

[2] = Quantitative High-Throughput drug screen in 47 multiple myeloma cell lines against the NCATS MIPE library collection: JIM1_ECACC cell viability assay (AID 1918964); settings: JIM1 myeloma viability, CellTiter-Glo ATP luminescence, 48 h; viability (% of DMSO): at 45.8 µM (top of the series)
Procedure, shortened: (§1)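 CellTiter-Glo ATP luminescence gave viability after 48 h compound treatment at 37C of 500 multiple myeloma cells per well. Normalisation used DMSO-only wells as 100% and media-only wells as 0% viability; primary qHTS of approved and investigational drugs.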

[3] = Quantitative High-Throughput drug screen in 47 multiple myeloma cell lines against the NCATS MIPE library collection: INA6_PLB cell viability assay (AID 1918965; further: nearly all actives have a fitted effect of over 55% in size); settings: INA6 myeloma viability, CellTiter-Glo ATP luminescence, 48 h; viability (% of control): at 45.8 µM (top of the series)
Procedure, shortened: (§2)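 Approved and investigational drugs from MIPE 4.0 were added by pin tool to 500 cells per well. After 48 hours at 37C, ATP-based CellTiter-Glo luminescence indicated remaining viability.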

[4] = Quantitative High-Throughput drug screen in 47 multiple myeloma cell lines against the NCATS MIPE library collection: JJN3_DSMZ cell viability assay (AID 1918966; further: nearly all actives have a fitted effect of over 50% in size); settings: JJN3 myeloma cells viability, CellTiter-Glo ATP, 48 h; series mostly up to 45.8 µM
Procedure, shortened: as §1

[5] = Quantitative High-Throughput drug screen in 47 multiple myeloma cell lines against the NCATS MIPE library collection: KMS27_JCRB cell viability assay (AID 1918970); settings: KMS27 myeloma cells, CellTiter-Glo ATP viability, 48 h; viability (% of DMSO): at 45.8 µM (top of the series); further: nearly all actives have a fitted effect of over 30% in size
Procedure, shortened: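 Each line is seeded at 500 cells per well and treated with library compounds for 48 hours under 37 °C, 5% CO2. CellTiter-Glo is then added for 5 min at room temperature before median relative luminescence is recorded.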

[6] = Quantitative High-Throughput drug screen in 47 multiple myeloma cell lines against the NCATS MIPE library collection: KMS20_JCRB cell viability assay (AID 1918973); settings: CellTiter-Glo ATP, 48 h; viability (% of DMSO): at 45.8 µM (top of the series); further: nearly all actives have a fitted effect of over 45% in size
Procedure, shortened: as §1

[7] = Quantitative High-Throughput drug screen in 47 multiple myeloma cell lines against the NCATS MIPE library collection: KMS26_JCRB cell viability assay (AID 1918975); settings: KMS26 myeloma cells viability, CellTiter-Glo ATP, 48 h; viability (% of DMSO): at 45.8 µM (top of the series); further: nearly all actives have a fitted effect of over 45% in size
Procedure, shortened: (§3)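 Myeloma cell lines, 500 cells per well, exposed to MIPE 4.0 library compounds for 48 h at 37C, 5% CO2. Viability from ATP by CellTiter-Glo luminescence; normalised to DMSO (100%) and media-only (0%) wells.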

[8] = Quantitative High-Throughput drug screen in 47 multiple myeloma cell lines against the NCATS MIPE library collection: MOLP8_DSMZ cell viability assay (AID 1918977); settings: MOLP8 myeloma viability, CellTiter-Glo ATP luminescence, 48 h; viability (% of control): at 45.8 µM (top of the series); further: nearly all actives have a fitted effect of over 45% in size
Procedure, shortened: (§4)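 MIPE 4.0 approved/investigational drugs; 500 cells/well; 48 h 37 °C humidified 5% CO2; CTG luminescence readout; DMSO = 100%, media = 0% viability.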

[9] = Quantitative High-Throughput drug screen in 47 multiple myeloma cell lines against the NCATS MIPE library collection: OCIMY1_PLB cell viability assay (AID 1918979); further: nearly all actives have a fitted effect of over 35% in size
Procedure, shortened: as §4

[10] = Quantitative High-Throughput drug screen in 47 multiple myeloma cell lines against the NCATS MIPE library collection: MM1S_ATCC cell viability assay (AID 1918980); further: nearly all actives have a fitted effect of over 45% in size
Procedure, shortened: as §4

[11] = Quantitative High-Throughput drug screen in 47 multiple myeloma cell lines against the NCATS MIPE library collection: MM1R_ATCC cell viability assay (AID 1918981); further: nearly all actives have a fitted effect of over 35% in size
Procedure, shortened: as §4

[12] = Quantitative High-Throughput drug screen in 47 multiple myeloma cell lines against the NCATS MIPE library collection: LP1_DSMZ cell viability assay (AID 1918982); further: nearly all actives have a fitted effect of over 35% in size
Procedure, shortened: as §4

[13] = Quantitative High-Throughput drug screen in 47 multiple myeloma cell lines against the NCATS MIPE library collection: KMS28PE_JCRB cell viability assay (AID 1918983); further: nearly all actives have a fitted effect of over 35% in size
Procedure, shortened: as §4

[14] = Quantitative High-Throughput drug screen in 47 multiple myeloma cell lines against the NCATS MIPE library collection: KMS12BM_JCRB cell viability assay (AID 1918971); further: nearly all actives have a fitted effect of over 35% in size
Procedure, shortened: as §3

[15] = Quantitative High-Throughput drug screen in 47 multiple myeloma cell lines against the NCATS MIPE library collection: KMS12PE_JCRB cell viability assay (AID 1918972); settings: KMS12PE myeloma viability, CellTiter-Glo ATP, 48 h; viability: at 45.8 µM (top of the series); further: nearly all actives have a fitted effect of over 30% in size
Procedure, shortened: as §2

[16] = Quantitative High-Throughput drug screen in 47 multiple myeloma cell lines against the NCATS MIPE library collection: KMS21BM_JCRB cell viability assay (AID 1918974); settings: ATP luminescence, 48 h; viability: at 45.8 µM (top of the series) unless noted
Procedure, shortened: as §1

[17] = Quantitative High-Throughput drug screen in 47 multiple myeloma cell lines against the NCATS MIPE library collection: MMM1_PLB cell viability assay (AID 1918976); further: nearly all actives have a fitted effect of over 35% in size
Procedure, shortened: as §4

[18] = Quantitative High-Throughput drug screen in 47 multiple myeloma cell lines against the NCATS MIPE library collection: NCIH929_DSMZ cell viability assay (AID 1918978); further: nearly all actives have a fitted effect of over 35% in size
Procedure, shortened: as §4

Measured: Potency
Potency means the concentration at half of the fitted maximal effect.

O=C(O)[C@H]1O[C@H](Oc2cc3oc(-c4ccccc4)cc(=O)c3c(O)c2O)[C@H](O)[C@@H](O)[C@H]1O
active: [4] 13.2 µM | [7] 20.9 µM | [11] 23.5 µM | [13] 16.6 µM
inconclusive: [1] 2.96 µM [cytotoxic, full curve, poor fit] | [2] 18.7 µM [cytotoxic, partial curve, poor fit] | [5] 0.0332 µM [cytotoxic, full curve, poor fit] | [6] 6.62 µM [cytotoxic, partial curve, poor fit] | [8] 33.2 µM [cytotoxic, single point] | [9] 18.7 µM [cytotoxic, partial curve, poor fit] | [10] 23.5 µM [cytotoxic, partial curve, poor fit] | [12] 2.35 µM [cytotoxic, partial curve, poor fit]
inactive: [3]

COc1cc(F)c(F)c(Nc2ccc(I)cc2F)c1NS(=O)(=O)C1(C[C@H](O)CO)CC1
active: [1] 18.7 µM | [2] 16.6 µM | [5] 16.6 µM | [7] 13.2 µM | [10] 16.6 µM
inactive: [3]
inconclusive: [4] 3.32 µM [cytotoxic, partial curve, poor fit] | [14] 18.7 µM [cytotoxic, partial curve, poor fit] | [6] 16.6 µM [cytotoxic, partial curve, poor fit] | [8] 0.0012 µM [cytotoxic, full curve, poor fit] | [9] 33.2 µM [rising, single point] | [12] 4.18 µM [cytotoxic, partial curve, poor fit]

Cc1ccc(N(CC2=NCCN2)c2cccc(O)c2)cc1
inconclusive: [1] 0.0019 µM [cytotoxic, full curve, poor fit] | [2] 23.5 µM [cytotoxic, partial curve, poor fit] | [4] 16.6 µM [cytotoxic, partial curve, poor fit] | [14] 26.4 µM [cytotoxic, single point] | [15] 33.2 µM [cytotoxic, single point] | [7] 14.8 µM [cytotoxic, partial curve, poor fit] | [8] 37.2 µM [cytotoxic, single point] | [11] 37.2 µM [cytotoxic, single point] | [12] 20.9 µM [cytotoxic, partial curve, poor fit]
inactive: [6] | [9]
active: [3] 13.2 µM

Cc1ccc(O)c(C(CCN(C(C)C)C(C)C)c2ccccc2)c1 (configuration not stated)
active: [16] 9.35 µM
inconclusive: [2] 0.0469 µM [rising, full curve, poor fit] | [3] 0.0012 µM [rising, full curve, poor fit] | [5] 2.35 µM [rising, full curve, poor fit] | [6] 1.05 µM [cytotoxic, full curve, poor fit] | [7] 0.235 µM [rising, full curve, poor fit] | [17] 0.0059 µM [rising, full curve] | [8] 0.187 µM [rising, full curve, poor fit] | [11] 0.0059 µM [rising, full curve, poor fit] | [12] 5.9 µM [rising, partial curve, poor fit]
inactive: [1] | [4] | [14] | [18] | [10] | [13]

COc1ccc2nc3cc(Cl)ccc3c(Nc3cc(CN4CCCC4)c(O)c(CN4CCCC4)c3)c2n1
active: [3] 7.43 µM | [14] 11.8 µM | [18] 18.7 µM | [10] 20.9 µM | [12] 20.9 µM
inconclusive: [1] 16.6 µM [cytotoxic, partial curve] | [2] 18.7 µM [cytotoxic, partial curve, poor fit] | [4] 29.6 µM [cytotoxic, single point] | [5] 33.2 µM [cytotoxic, partial curve, poor fit] | [15] 14.8 µM [cytotoxic, partial curve] | [16] 23.5 µM [cytotoxic, partial curve, poor fit] | [9] 33.2 µM [cytotoxic, single point] | [11] 1.32 µM [cytotoxic, full curve, poor fit] | [13] 33.2 µM [cytotoxic, single point]
